In patent US11517568B2, “Compounds and methods for treating nematode infections” (The Governing Council of The University of Toronto, priority 2018, dated 2022):
Entries after “also recorded” stand apart in the source; their conditions may differ. At least one structure is not confirmed: it was looked up by name or label, or the drawing left a doubt.

Experiments:
Format in all cases: in vivo, Caenorhabditis elegans
C. elegans [1] = experiment: Suppression of aldicarb-induced paralysis in C. elegans; settings: p<0.001, FIG. 3
Experimental: Whether exemplary compound Ia can suppress the paralysis that is induced by aldicarb was tested. Aldicarb inhibits acetylcholinesterase, which normally catabolizes ACh at the synaptic cleft. […] Aldicarb treatment therefore results in excess ACh and paralyzes the animal due to excess muscle contraction. If exemplary compound Ia inhibits UNC-17 and results in lower levels of ACh at the synaptic cleft, then exemplary compound Ia should reduce aldicarb-induced paralysis.

wild type C. elegans = experiment: Manual monitoring of locomotion phenotype of wild type C. elegans on solid agar containing the small molecule; settings: solid agar substrate
From the text: The ability of the 64 Egl hits to modulate the normal sinusoidal locomotion of wild type C. elegans was then examined. The animal's behaviour over the course of several hours was manually monitored while the animal moved atop a solid agar substrate containing the small molecule. Many different genes govern the sinusoidal locomotion of wild type C. elegans, but their mutation can lead to qualitatively distinct locomotory phenotypes.

[2] = tested on: UNC-17 (VAChT), unc-17 mutant strains
C. elegans [3] = experiment: Forward genetic screens for mutants resisting early larval lethal effects; settings: over 200,000 F1 and over 100,000 F2 animals screened
Experimental: Forward genetic screens were performed for mutants that can resist the early larval lethal effects of compound Ic and compound Id. Over 200,000 F1 animals and over 100,000 F2 animals from randomly mutagenized parents/grandparents were screened.

Row | Structure (SMILES) | reduction of aldicarb-induced paralysis (C. elegans [1]) | locomotory phenotype induced (wild type C. elegans) | sensitivity of unc-17 hypomorphic alleles e245, e327, and e795 ([2]; p<0.001) | sensitivity of unc-17(md414) (C370Y) mutant ([2]; p=0.001) | mutants resisting early larval lethal effects (C. elegans [3])
1 | O=[N+]([O-])c1ccc(N2CCN(CC3CCCCC3)CC2)cc1 [Compound Ia] | obvious reduction of aldicarb-induced paralysis | strong coiler phenotype; also recorded: ‘severe’ snake-like coiler phenotype and paralysis; also recorded: “coiler defect” phenotype | heightened sensitivity | partially resistant | 
2 | CCC1CCC(N2CCN(c3ccc([N+](=O)[O-])cc3)CC2)CC1 (centres unmarked) [Ic] |  |  |  |  | No mutants that could resist the lethal effects
